# From the supplement of paper PMC10689618
# The list shows a part of the results. Single values are uncertain, as repeats are few or missing.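 Labelled rat cortical synaptosomes were engulfed by primary human fetal astrocytes. Engulfment equaled a red/green ratio, corrected for calcein live-cell signal and normalized to the plate median. Compounds were toxic when calcein dropped over 30%, and reduced phagocytosis when below 70% of the median above 5 µM.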
# Legend:
# Human fetal astrocytes [1] = test: loss of total cells relative to no-compound high-control median (toxicity); higher = more toxic (fewer cells); details: 24 h
# Human fetal astrocytes [2] = test: synaptosome phagocytosis (pHrodo/calcein intensity ratio) relative to plate median of data wells; higher = more phagocytosis; details: 24 h
SMILES,loss of total cells (Human fetal astrocytes [1]; 1.39 µM),loss of total cells (Human fetal astrocytes [1]; 2.78 µM),loss of total cells (Human fetal astrocytes [1]; 5.56 µM),loss of total cells (Human fetal astrocytes [1]; 11.11 µM),loss of total cells (Human fetal astrocytes [1]; 22.22 µM),synaptosome phagocytosis (Human fetal astrocytes [2]; 1.39 µM),synaptosome phagocytosis (Human fetal astrocytes [2]; 2.78 µM),synaptosome phagocytosis (Human fetal astrocytes [2]; 5.56 µM),synaptosome phagocytosis (Human fetal astrocytes [2]; 11.11 µM),synaptosome phagocytosis (Human fetal astrocytes [2]; 22.22 µM)
O=c1cc(-c2ccccc2)oc2cccc(O)c12,-17.2%,-14.1%,-8.1%,-3.4%,10.4%,102%,106%,60.7%,124%,106%
CCOc1ccc(C(=O)c2ccc(O)c(O)c2O)cc1,-11.2%,-6.6%,25.2%,41.3%,1.1%,111%,114%,143%,110%,94.3%
Nc1nc(=O)[nH]cc1F,16.1%,-46%,11.8%,-12.1%,9%,150%,94.5%,112%,87.6%,105%
O=c1[nH]c(=O)n([C@H]2C[C@H](O)[C@@H](CO)O2)cc1F,-36.3%,-19%,11.8%,37%,8.4%,114%,104%,125%,103%,130%
O=C1CC[C@]23/C=C/C(=O)NCCCCNCCCNC(=O)/C=C/c4ccc(c2c4)O[C@@H]3C1,25.7%,5.3%,-13%,54.2%,28.5%,95.1%,106%,95.5%,125%,102%
COC1=C[C@@H](C)[C@@H]2C[C@H]3OC(=O)C[C@H]4C(C)=C(OC)C(=O)[C@H]([C@@]2(C)C1=O)[C@@]34C,-21.3%,-5.4%,-13.2%,14.2%,4.4%,91.9%,97%,98.4%,103%,159%
CC(C)c1c(O)c(-c2cc3c(c(C(C)C)c2O)CCC2C(C)(C)CCC[C@]32C)cc2c1CCC1C(C)(C)CCC[C@]21C (stereo not given in full),-17.8%,-2.7%,32.1%,12.3%,-3.3%,95.6%,109%,145%,72.5%,113%
OC[C@@H](O)[C@@H](O[C@@H]1O[C@H](CO)[C@H](O)[C@H](O)[C@H]1O)[C@H](O)[C@@H](O)CO,34.7%,-16.7%,8.1%,23.9%,3.4%,147%,108%,116%,83%,104%
C=CC1(C)CC(=O)C2(O)C(C)(O1)C(O)C(O)C1C(C)(C)CCC(O)C12C (stereo not given),-10.7%,10.5%,-11%,-2%,12.6%,128%,127%,82.2%,101%,96.9%
Oc1cc(O)c2c(c1)O[C@H](c1cc(O)c(O)c(O)c1)[C@H](O)C2,-4.7%,2.7%,-29.8%,12.3%,27.8%,106%,109%,79.3%,81.7%,107%
COc1ccc(CN(CCN(C)C)c2ncccn2)cc1,-28.2%,-3.2%,-6.8%,45.6%,0.9%,97.8%,122%,93.1%,126%,97.4%
CC(=O)Oc1ccc2c(c1)CC[C@@H]1[C@@H]2CC[C@]2(C)[C@@H](O)CC[C@@H]12,0.8%,-10.1%,13.5%,15.6%,19.8%,100%,116%,116%,93.1%,99.4%
CCCc1nc(C(C)(C)O)c(C(=O)OCc2oc(=O)oc2C)n1Cc1ccc(-c2ccccc2-c2nnn[nH]2)cc1,-10.5%,-19.8%,1.2%,23.9%,-5.9%,98%,93.5%,112%,134%,122%
CC(=O)O[C@@H]1CC2C(C)(C)C(=O)C3OC3[C@]2(C)C2CC[C@@]3(C)[C@H](c4ccoc4)OC(=O)C4OC43[C@@]21C (stereo not given in full),-6.9%,1.3%,-25.2%,-1.9%,-5.6%,108%,117%,100%,105%,75.8%
CC(=O)OCC[N+](C)(C)C,-10%,-9.5%,-6.9%,-11.7%,16.4%,123%,113%,90.5%,139%,102%
CO[C@@H]1[C@@H](O[C@@H]2O[C@H](C)[C@@H](O[C@H]3C[C@@](C)(O)[C@@H](OC(=O)CC(C)C)[C@H](C)O3)[C@H](N(C)C)[C@H]2O)[C@@H](CC=O)C[C@@H](C)[C@@H](O)/C=C/C=C/C[C@@H](C)OC(=O)C[C@H]1OC(C)=O,-22.4%,-11.9%,-2.1%,-13.3%,7.9%,134%,113%,117%,142%,118%
CC(=O)O[C@@H]1C[C@H]2C(C)(C)C(=O)C=C[C@]2(C)[C@H]2CC[C@@]3(C)[C@H](c4ccoc4)OC(=O)[C@H]4O[C@]43[C@@]21C,26.4%,14.8%,12.3%,7.1%,2.3%,87.1%,144%,92.4%,68.4%,84%
CC(C)=CCOc1cc2oc(=O)ccc2cc1O,-24.3%,0.7%,38.2%,-2.6%,29.3%,77.9%,98%,133%,71.9%,107%
COc1ccc(-c2cc(=O)c3c(O)cc(O)cc3o2)cc1,-8.3%,0.7%,10.7%,42.6%,-11.5%,110%,126%,93.1%,163%,102%

# A portion taken from the entries so far:
SMILES,loss of total cells (Human fetal astrocytes [1]; 1.39 µM),loss of total cells (Human fetal astrocytes [1]; 2.78 µM),loss of total cells (Human fetal astrocytes [1]; 5.56 µM),loss of total cells (Human fetal astrocytes [1]; 11.11 µM),loss of total cells (Human fetal astrocytes [1]; 22.22 µM),synaptosome phagocytosis (Human fetal astrocytes [2]; 1.39 µM),synaptosome phagocytosis (Human fetal astrocytes [2]; 2.78 µM),synaptosome phagocytosis (Human fetal astrocytes [2]; 5.56 µM),synaptosome phagocytosis (Human fetal astrocytes [2]; 11.11 µM),synaptosome phagocytosis (Human fetal astrocytes [2]; 22.22 µM)
C=CC1(C)CC(=O)C2(O)C(C)(O1)C(O)C(O)C1C(C)(C)CCC(O)C12C (stereo not given),-10.7%,10.5%,-11%,-2%,12.6%,128%,127%,82.2%,101%,96.9%
Oc1cc(O)c2c(c1)O[C@H](c1cc(O)c(O)c(O)c1)[C@H](O)C2,-4.7%,2.7%,-29.8%,12.3%,27.8%,106%,109%,79.3%,81.7%,107%
